Data source: PubChem BioAssay AID1224830 (NIAID, 2016)
Assay: 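Regulators of TLR4 signalling towards TNF-alpha in macrophage-like cells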 (primary screen). System: human THP-1 monocytic leukaemia cells, TNF dual-luciferase reporter clone, PMA-differentiated to macrophage-like cells. Knock-down reagent: siRNA pool against human genes, 50 nM. Duration: LPS for 4 h, given about 3 days after siRNA transfection. Treatment: bacterial LPS (TLR4 ligand), 10 ng/ml. Detection: 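Ratio of firefly to renilla light, scaled to the plate median and expressed as a robust z-score per replicate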. Scale: TNF reporter robust z-score: higher = stronger TNF reporter response to LPS. Hit rule: 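Each well counts as active if its z-score is over 2.8 or under -1.5; controls are left without a call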.
Here is a random part of about 18,000 deposited reagents. About 2,900 of them (16%) count as active. 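Calls are made per well; low scores hint the gene aids the LPS response, high scores that it dampens it.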 Entries without a mark were called inactive. Repeated entries: four replicate wells of each siRNA pool.

target | TNF reporter robust z-score
ETNPPL | -0.18
ETNPPL | 1.63
ETNPPL | -0.13
ETNPPL | 1.49
FAM43B | 1
FAM43B | 1.65
FAM43B | 0.42
FAM43B | 1.43
TNIP3 | -0.1
TNIP3 | 0.54
TNIP3 | 0.47
TNIP3 | -0.02
SPHK2 | -0.38
SPHK2 | -0.44
SPHK2 | -0.1
SPHK2 | -0.2
NHEJ1 | 1.29
NHEJ1 | 0.54
NHEJ1 | 1.35
NHEJ1 | 1.79
MGMT | -0.96
MGMT | 0.45
MGMT | -1.06
MGMT | -0.01
CCDC43 | 2.73
CCDC43 | 1.94
CCDC43 | 1.03
CCDC43 | 1.93
HNRNPD | 0.52
HNRNPD | 0.68
HNRNPD | -0.28
HNRNPD | 0.34
SNTG2 | -0.12
SNTG2 | -0.2
SNTG2 | 0.85
SNTG2 | 0.74
PITPNA | -0.46
PITPNA | 0.28
PITPNA | 0.86
PITPNA | 0.04
PPM1B | -0.29
PPM1B | 0.14
PPM1B | -0.64
PPM1B | 0.13
RPL38 | -0.31
RPL38 | -0.74
RPL38 | -0.41
RPL38 | -0.24
C12orf76 | -0.84
C12orf76 | -0.59
C12orf76 | -0.3
C12orf76 | 0.51
CCDC25 | -1.58 (active)
CCDC25 | -1.5
CCDC25 | -1.3
CCDC25 | -1.03
OC90 | 0.28
OC90 | 1.79
OC90 | -0.72
OC90 | 1.15
AFDN | -0.34
AFDN | -0.74
AFDN | -0.67
AFDN | 0.24
B3GNT9 | 1.91
B3GNT9 | 0.77
B3GNT9 | 2.12
B3GNT9 | 1.06
DAB1 | 2.71
DAB1 | 1.46
DAB1 | 0.88
DAB1 | -0.63
MS4A14 | -1.63 (active)
MS4A14 | -1.32
MS4A14 | -0.98
MS4A14 | -1.33
PTRH2 | -1.01
PTRH2 | 0.26
PTRH2 | 0.08
PTRH2 | 0.1
TMEM79 | -0.48
TMEM79 | 0.85
TMEM79 | 0.64
TMEM79 | 0.45
ZNF300 | 0.53
ZNF300 | -0.55
ZNF300 | -0.31
ZNF300 | 0.09
LHCGR | -0.69
LHCGR | 1.7
LHCGR | 0.34
LHCGR | 1.46
CMKLR2 | -1.62 (active)
CMKLR2 | -0.79
CMKLR2 | -1.39
CMKLR2 | -0.71
UGGT1 | 0.62
UGGT1 | -0.36
UGGT1 | -1.23
UGGT1 | -0.53
MLLT3 | 2.36
MLLT3 | 1.31
MLLT3 | 1.68
MLLT3 | 0.64
NPS | 0.63
NPS | 0.5
NPS | -0.44
NPS | -0.41
GCKR | -0.66
GCKR | -1.37
GCKR | -0.98
GCKR | -0.57

Reprinted from the listing for reference:
target | TNF reporter robust z-score
B3GNT9 | 1.06
DAB1 | 2.71
DAB1 | 1.46
DAB1 | 0.88
DAB1 | -0.63
MS4A14 | -1.63 (active)
MS4A14 | -1.32
MS4A14 | -0.98
